Test results as given in paper PMC6403214.
Results are given in words; binding and its absence hold for the method and conditions named. In cells and extracts the contact can be indirect. Some entries that bind do so weakly or less than the wild type.

Sequences of proteins named here, by UniProt entry; tags and fusion partners are left off. A change or cut given only in a name is not applied to a line headed by its entry.
UniProt Q62481: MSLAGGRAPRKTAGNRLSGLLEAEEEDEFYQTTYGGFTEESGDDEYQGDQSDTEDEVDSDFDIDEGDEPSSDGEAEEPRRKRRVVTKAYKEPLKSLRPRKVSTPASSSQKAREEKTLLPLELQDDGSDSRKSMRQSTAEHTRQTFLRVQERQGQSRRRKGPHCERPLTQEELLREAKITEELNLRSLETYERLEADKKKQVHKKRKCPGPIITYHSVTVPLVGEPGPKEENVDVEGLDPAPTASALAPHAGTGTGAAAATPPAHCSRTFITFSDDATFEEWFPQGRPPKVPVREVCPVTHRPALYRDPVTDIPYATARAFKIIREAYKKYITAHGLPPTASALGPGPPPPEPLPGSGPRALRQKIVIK

Molecular target: YL1 (H2A.Z chaperone, subunit of the SRCAP complex) (mouse (endogenous in intestinal crypts and organoids)) (UniProt Q62481)
Experiment: co-IP; anti-YL1 immunoprecipitation from lysate of wild-type or control (+/+) mouse intestinal crypts, immunoblotting for p-Akt, H2A.Z, Znhit1

- binding: binds
B1: Zinc finger HIT-type containing 1 (Znhit1) (protein, UniProt Q8R331 1-154)
chain: MVEKKPAVRSQDPGQRRVLDRAARQRRINRQLEALENDNFQDDPHAGLPQLGKRLPQFDDDADTGKKKKKTRGDHFKLRFRKNFQALLEEQNLSASEGPNYLTACAGPPSRPQRPFCAVCGFPSPYTCVSCGARYCTVRCLGTHQETRCLKWTV
